The values that follow come from article PMC5514891.

Residue numbers refer to the chain shown, from its start. Numbers in names are those of the source. No constants are given. Whether binding was seen depends on the method and setting. Binding seen in cells or lysates may run through a third protein. Some entries that bind do so weakly or less than the wild type.

The assay deals with T1, RARα2 (pcDNA3-RARα2, transfected in COS-7 cells) (human (RARα2 cDNA amplified from NB4 cells)) (UniProt P10276).
T1 sequence: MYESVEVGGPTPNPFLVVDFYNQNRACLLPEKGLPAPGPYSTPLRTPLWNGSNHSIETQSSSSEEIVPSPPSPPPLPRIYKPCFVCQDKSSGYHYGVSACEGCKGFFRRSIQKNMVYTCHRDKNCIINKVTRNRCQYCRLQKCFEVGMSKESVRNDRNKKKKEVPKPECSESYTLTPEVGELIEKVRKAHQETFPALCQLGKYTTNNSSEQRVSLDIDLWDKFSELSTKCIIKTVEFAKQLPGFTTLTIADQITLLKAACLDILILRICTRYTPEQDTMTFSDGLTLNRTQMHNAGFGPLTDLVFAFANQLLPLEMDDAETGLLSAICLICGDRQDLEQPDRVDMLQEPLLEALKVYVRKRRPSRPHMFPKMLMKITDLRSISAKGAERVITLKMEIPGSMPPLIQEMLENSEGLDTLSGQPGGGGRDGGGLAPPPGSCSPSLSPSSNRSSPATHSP
The assay can be described thus: co-IP; COS-7 cells co-transfected, treated with vehicle or ATRA (1 uM) for 4 hours; extracts immuno-precipitated with anti-RARα2 antibodies on Protein-G-sepharose; Western blot with anti-RARα antibody RP alpha (F). On the technique in general: Immunoblotting shows a protein as a band on a membrane.

B1: RARα1-I396E mutant (protein, UniProt P10276 1-462)
chain: MASNSSSCPTPGGGHLNGYPVPPYAFFFPPMLGGLSPPGALTTLQHQLPVSGYSTPSPATIETQSSSSEEIVPSPPSPPPLPRIYKPCFVCQDKSSGYHYGVSACEGCKGFFRRSIQKNMVYTCHRDKNCIINKVTRNRCQYCRLQKCFEVGMSKESVRNDRNKKKKEVPKPECSESYTLTPEVGELIEKVRKAHQETFPALCQLGKYTTNNSSEQRVSLDIDLWDKFSELSTKCIIKTVEFAKQLPGFTTLTIADQITLLKAACLDILILRICTRYTPEQDTMTFSDGLTLNRTQMHNAGFGPLTDLVFAFANQLLPLEMDDAETGLLSAICLICGDRQDLEQPDRVDMLQEPLLEALKVYVRKRRPSRPHMFPKMLMKITDLRSISAKGAERVETLKMEIPGSMPPLIQEMLENSEGLDTLSGQPGGGGRDGGGLAPPPGSCSPSLSPSSNRSSPATHSP
B1: the binding entry was “binds”.

B2: RARα1-S369A mutant (protein, UniProt P10276 1-462)
chain: B1 chain with S369A, E396I
Consider B2, for which the binding result is listed as “no binding”.

B3: RARα1-S157A mutant (protein, UniProt P10276 1-462)
chain: B1 chain with S157A, E396I
In the case of B3, the binding entry is listed as “binds”.
